{
  "source": "paper PMC11955551",
  "binders": {"B1": {"name": "myc-LMNB1 recombinant protein, P20700 1-586 (protein)", "chain": "MATATPVPPRMGSRAGGPTTPLSPTRLSRLQEKEELRELNDRLAVYIDKVRSLETENSALQLQVTEREEVRGRELTGLKALYETELADARRALDDTARERAKLQIELGKCKAEHDQLLLNYAKKESDLNGAQIKLREYEAALNSKDAALATALGDKKSLEGDLEDLKDQIAQLEASLAAAKKQLADETLLKVDLENRCQSLTEDLEFRKSMYEEEINETRRKHETRLVEVDSGRQIEYEYKLAQALHEMREQHDAQVRLYKEELEQTYHAKLENARLSSEMNTSTVNSAREELMESRMRIESLSSQLSNLQKESRACLERIQELEDLLAKEKDNSRRMLTDKEREMAEIRDQMQQQLNDYEQLLDVKLALDMEISAYRKLLEGEEERLKLSPSPSSRVTVSRASSSRSVRTTRGKRKRVDVEESEASSSVSISHSASATGNVCIEEIDVDGKFIRLKNTSEQDQPMGGWEMIRKIGDTSVSYKYTSRYVLKAGQTVTIWAANAGVTASPPTDLIWKNQNSWGTGEDVKVILKNSQGEEVAQRSTVFKTTIPEEEEEEEEAAGVVVEEELFHQQGTPRASNRSCAIM"}},
  "target": "T1, GST-tagged TRF2 WT protein (recombinant TRF2 full length), Q15554",
  "T1 chain": "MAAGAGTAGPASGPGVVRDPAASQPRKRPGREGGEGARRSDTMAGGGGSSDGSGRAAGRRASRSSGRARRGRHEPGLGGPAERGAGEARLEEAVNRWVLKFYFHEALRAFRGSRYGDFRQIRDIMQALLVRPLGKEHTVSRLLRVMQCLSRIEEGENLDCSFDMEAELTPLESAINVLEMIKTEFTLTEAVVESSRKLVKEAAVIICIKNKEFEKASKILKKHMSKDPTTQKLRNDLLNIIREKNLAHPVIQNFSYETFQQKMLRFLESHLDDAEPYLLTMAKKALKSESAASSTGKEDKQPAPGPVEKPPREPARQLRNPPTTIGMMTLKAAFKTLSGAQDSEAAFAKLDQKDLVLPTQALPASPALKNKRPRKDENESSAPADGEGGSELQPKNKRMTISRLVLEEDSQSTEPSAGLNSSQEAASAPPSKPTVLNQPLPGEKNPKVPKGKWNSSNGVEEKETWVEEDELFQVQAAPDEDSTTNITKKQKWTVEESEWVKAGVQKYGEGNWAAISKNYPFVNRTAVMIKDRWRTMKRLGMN",
  "assay": "pull-down; vitro-vitro: 5 pmol GST-TRF2 with 5 pmol myc-tagged recombinant protein in 1 ml of 20 mM Tris-HCl pH 8, 100 mM KCl, 1 mM EDTA, 0.2% Triton, overnight at 4 °C; Glutathione Sepharose 4B 2 h at RT; five washes; Western blot; both purified",
  "conditions": "remark: other sources report otherwise",
  "note": "No constants are given. Whether binding was seen depends on the method and setting. Where a sequence is shown, tags or fusion partners need not be part of it.",
  "data": [
    {"binder": "B1", "values": [
      {"measurement": "binding", "value": "no binding (tested: 5 pmol of each protein in 1 ml)"}
    ]}
  ]
}
